Test results from PubChem BioAssay AID1259354 (Paczesny and Yang Labs, IUPUI and University of Michigan, 2018).
The campaign covered roughly 78,000 compounds. About 1,800 (2.3%) were called active. Inconclusive means that the source gave no clear call. Such entries were picked first, then a sample of the others. No stated cut-off is given here; in the data, active means inhibition above about 30%; inconclusive means mostly about 10% to 28%; inactive means weaker than that.

Protein sequences, listed by entry. Tags and fused reporters are not part of them. Lines headed by an entry give the natural chain unless they say otherwise; changes in a name come on top.
UniProt Q01638: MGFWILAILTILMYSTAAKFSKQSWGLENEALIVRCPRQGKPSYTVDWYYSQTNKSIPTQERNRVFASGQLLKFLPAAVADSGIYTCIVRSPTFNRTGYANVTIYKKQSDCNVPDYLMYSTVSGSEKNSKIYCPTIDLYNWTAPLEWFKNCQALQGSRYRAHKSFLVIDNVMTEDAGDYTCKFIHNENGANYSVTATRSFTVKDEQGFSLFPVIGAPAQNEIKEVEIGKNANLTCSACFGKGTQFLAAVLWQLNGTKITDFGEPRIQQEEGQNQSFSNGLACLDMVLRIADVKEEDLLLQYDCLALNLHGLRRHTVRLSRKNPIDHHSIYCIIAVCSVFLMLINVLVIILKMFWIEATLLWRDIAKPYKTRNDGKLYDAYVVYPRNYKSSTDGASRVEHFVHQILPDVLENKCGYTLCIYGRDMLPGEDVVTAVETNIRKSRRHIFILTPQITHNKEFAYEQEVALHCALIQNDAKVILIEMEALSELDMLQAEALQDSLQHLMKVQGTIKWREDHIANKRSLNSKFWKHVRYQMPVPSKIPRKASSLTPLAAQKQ

What follows are molecules tested against Interleukin-1 receptor-like 1 (Homo sapiens) (UniProt Q01638) (assay: blocks human ST2 binding to IL-33, primary screen, biochemical, AlphaLISA (AID 1259354)). Conditions: AlphaLISA ST2-Fc/biotin-IL-33 interaction, 1 h; at 17 µM, hits give high values.
CCOC(=O)CSc1nc2c([nH]c3ccccc32)c(=O)n1-c1ccc(C)cc1 was tested, and the inhibition was inconclusive: 15%. O=C(O)C1CN(S(=O)(=O)c2cccc3ccccc23)CCN1 (stereo not drawn) was tested, and the inhibition was inconclusive: 11%. In the case of Cc1ccc(CNc2ccc3c(c2)nc(C)n3C)cc1, the inhibition is reported as inconclusive: 10%. With COc1ccc(C(=O)Nc2cccc(NC(=O)c3ccccc3Cl)c2)cc1Br the inhibition was active: 59%. CCCCOc1ccc(C(=O)Nc2ccc(Nc3nc(C)cc(Nc4ccc(OC)cc4)n3)cc2)cc1 was tested, and the inhibition was inconclusive: 18%. For CC(C)NC(=O)N[C@H]1C[C@H]2C(=O)NC[C@@H](CCC(=O)NC3CC3)N2C1, the inhibition was inconclusive: 15%. C[C@@H]1O[C@@H](OC[C@H]2O[C@@H](Oc3cc(O)c4c(c3)OC(c3ccc(O)c(O)c3)CC4=O)[C@H](O)[C@@H](O)[C@@H]2O)[C@H](O)[C@H](O)[C@H]1O (stereo partly drawn) was tested, and the inhibition was inconclusive: 10%. O=C(NCC1CCCO1)c1ccc2c(c1)N(Cc1ccccc1)C(=O)c1ccccc1S2 (stereo not drawn) was tested, and the inhibition was “inactive”. With c1ccc(Sc2c(-c3ccccc3)nc3ncccn23)cc1 the inhibition was “inactive”. In the case of O=C1Nc2ccc(Br)cc2/C1=C/c1ccc(O)cc1, the inhibition is reported as inconclusive: 20%. For O=C1Nc2ccccc2/C1=C/C(=O)c1ccc([N+](=O)[O-])cc1, the inhibition was inconclusive: 13%. In the case of CCN(CC)CCNC(=O)COc1ccc(Cl)cc1Cl, the inhibition is reported as inconclusive: 13%. In the case of CC1CCN(c2nc3nonc3nc2Nc2ccc3c(c2)OCO3)CC1, the inhibition is reported as inconclusive: 20%. For O[C@@H]1C[C@@H](c2nc(Cc3ccc(F)cc3Cl)no2)N(Cc2cccs2)C1, the inhibition was inconclusive: 13%. In the case of O=C(NCc1cccnc1)c1cc(=O)[nH]c2ccc(S(=O)(=O)N3CCCC3)cc12, the inhibition is reported as inconclusive: 10%. With CC(C)CNc1nc2c(c(=O)n(C)c(=O)n2C)n1Cc1ccc(Br)cc1 the inhibition was inconclusive: 12%. For COc1ccccc1/C=C/c1cc(OC)c2c(C)oc(C)c2c(=O)c1, the inhibition was inconclusive: 12%. With Cc1ccc2nc3c(cc2c1)c(C)nn3-c1ccccc1 the inhibition was inconclusive: 25%. For CCC(C)NC(=O)NCCc1nc2cccnc2n1Cc1ccccc1 (stereo not drawn), the inhibition was inconclusive: 15%. O=C(/C=C/c1cc(F)ccc1F)NCC1Cc2cc(-c3cccnc3)cc(F)c2O1 (stereo not drawn) was tested, and the inhibition was inconclusive: 10%. COc1cccc(N2CCN(c3ncnc4c3cnn4-c3cccc(C)c3)CC2)c1 was tested, and the inhibition was inconclusive: 24%. Cc1ccc2[nH]cc(C(=O)c3ccc(Cl)cc3)c(=O)c2c1 was tested, and the inhibition was inconclusive: 14%. CC(C)CCC1=NC2(CCN(C(=O)c3cc(F)cc(Cl)c3)CC2)C(=O)N1 was tested, and the inhibition was “inactive”. CCC1=C(c2ccc(OC)cc2)S(=O)(=O)N(CC(=O)Nc2ccc(Br)c(C)c2)C1=O was tested, and the inhibition was “inactive”. For CN1CCC(CNC(=O)c2ccc3c4c([nH]c3c2)CCCC4)C1 (stereo not drawn), the inhibition was inconclusive: 24%. For COc1cc(C(=O)NC(C)C(c2cccs2)N2CCN(C)CC2)cc(OC)c1OC (stereo not drawn), the inhibition was “inactive”. For NCCSSCCN, the inhibition was inconclusive: 22%. COc1ccc(-c2nc3c(=O)n(C)c(=O)nc-3n(C)n2)cc1OC was tested, and the inhibition was inconclusive: 14%. With CN(C)CCN1C(=O)C(O)=C(C(=O)c2ccco2)C1c1ccc([N+](=O)[O-])cc1 (stereo not drawn) the inhibition was “inactive”. O=C(Nc1cccc2ccccc12)O[C@@H]1CO[C@H]2[C@@H]1OC[C@@H]2NS(=O)(=O)c1ccc2ccccc2c1 was tested, and the inhibition was inconclusive: 19%. In the case of COc1ccc2[nH]c(C(=O)N3CCCN(C)C4(CCN(C)CC4)C3)cc2c1, the inhibition is reported as “inactive”. With CCN(CC)c1ccc(C2NC(=O)NC(C)=C2C(=O)OCCOC(C)C)cc1 (stereo not drawn) the inhibition was inconclusive: 13%. With CCC(=O)N1CCc2cc(Br)cc(S(=O)(=O)N3c4ccccc4CC3C)c21 (stereo not drawn) the inhibition was inconclusive: 17%. Cc1ncoc1C(=O)N1CCOC(CC2CCCCC2)C1 (stereo not drawn) was tested, and the inhibition was inconclusive: 19%. For Cc1ccccc1CSC1=NCCN1C(=O)c1ccc(S(=O)(=O)N2CCOCC2)cc1, the inhibition was “inactive”. With CCn1ccnc1CNC(=O)c1ccc(C(C)N2CCCCC2)o1 (stereo not drawn) the inhibition was inconclusive: 14%. For Cc1cccc(C)c1NC(=O)c1ccc(Cl)cc1, the inhibition was inconclusive: 10%. In the case of NS(=O)(=O)c1ccc(CCNS(=O)(=O)c2cccc3cccnc23)cc1, the inhibition is reported as inconclusive: 21%. For Cc1cc(N2C(=O)C3CC=CCC3C2=O)ccc1Br (stereo not drawn), the inhibition was “inactive”. For Cc1ncc2c(c1-c1noc(-c3cc(C(C)C)oc3C)n1)CCNC2, the inhibition was inconclusive: 23%. CCC(C)NC(=O)Cn1c(=O)n(CC(=O)NCc2ccc(C)cc2)c(=O)c2sccc21 (stereo not drawn) was tested, and the inhibition was inconclusive: 21%. For CC(=O)c1ccc(N=c2oc3ccccc3cc2C(N)=O)cc1, the inhibition was inconclusive: 17%. With CCCn1ncc(-c2ccnc(NCc3cnn(CC)c3)n2)c1C the inhibition was “inactive”. In the case of CCCCSc1nc2c(c(=O)n1-c1ccc(Cl)cc1)SCC2, the inhibition is reported as “inactive”. With COc1ccc(C(=O)NC(Nc2ccc(S(N)(=O)=O)cc2)C(Cl)(Cl)Cl)cc1 (stereo not drawn) the inhibition was inconclusive: 19%. With O=C(c1ccccc1)c1ccc2c3c(cccc13)C(=O)N(CCO)C2=O the inhibition was “inactive”. In the case of COc1cc([C@H]2C[C@@H](NC(C)=O)C[C@@H](COCc3ccccc3)O2)ccc1F, the inhibition is reported as “inactive”. For CC(=O)c1ccc(NC(=O)c2cc(C)on2)cc1, the inhibition was “inactive”. With CC(O)Cn1ccnc1-c1ccc(C#CCCO)cc1 (stereo not drawn) the inhibition was inconclusive: 15%. For CCOCCCNCc1ccc(OC)c(OCC)c1, the inhibition was inconclusive: 10%. For CCCCOc1ccc(C2C(C(=O)OC)=C(C)N=C3SCCC(=O)N32)cc1OC (stereo not drawn), the inhibition was “inactive”. In the case of Cc1ccc(-n2ncc3c(NC(C)C)ncnc32)c(C)c1, the inhibition is reported as “inactive”. With [O-][n+]1c2ccccc2[n+]([O-])c2cc(O)ccc21 the inhibition was active: 35%. With O=C(O)CCC(=O)c1ccc(-c2ccn[nH]2)cc1 the inhibition was inconclusive: 18%. In the case of CCc1nnc(NC(=O)c2cccc(Cl)c2Cl)s1, the inhibition is reported as “inactive”. Cc1cc(C)nc(SC(C)C(=O)N(C)Cc2c(C)noc2C)n1 (stereo not drawn) was tested, and the inhibition was inconclusive: 10%. In the case of CC(=O)O[C@H]1C(=O)[C@@]2(C)C([C@H](OC(=O)c3ccccc3)[C@]3(O)C[C@H](OC(=O)[C@H](O)[C@@H](NC(=O)c4ccccc4)c4ccccc4)C(C)=C1C3(C)C)[C@]1(OC(C)=O)CO[C@@H]1C[C@@H]2O (stereo partly drawn), the inhibition is reported as inconclusive: 16%. For COc1ccc(S(=O)(=O)Nc2ccc3n(c2=O)C[C@H]2C[C@@H]3CN(C(=O)c3cccnc3)C2)cc1, the inhibition was “inactive”.
